Experimental data: PubChem BioAssay AID1159600 (NIAID, 2016)
Screen: 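Which TLR pathway genes support TNF promoter activation by R848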 (primary screen). System: human THP-1 TNF reporter clone B5, made macrophage-like with PMA. Reagent: single siRNA against human genes. Duration: 4 h ligand stimulation, assayed 48 to 72 h after siRNA transfection. Challenge: R848 (TLR7/8 agonist) for 4 hours before lysis; dose not given. Read-out: 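Robust z-score of firefly over renilla TNF promoter signal after 4 h R848, plate median/MAD normalised, relative to negative controls, averaged across replicates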. Direction: TNF reporter z-score: higher = stronger TNF promoter reporter signal after R848. Call rule: 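siRNAs graded by distance of mean z-score from zero in steps of 1, 1.5, 2 and 2.5; active calls sit at roughly -1.5 or below, or 1.5 or above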. Calls: active = strong change in TNF reporter (up or down); inactive = little change.
This is an unselected part of 756 deposited reagents. 134 of them (18%) were called active. 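Active includes both reduced and increased reporter signal, though most active siRNAs reduce it; R848 dose unknown.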 Unmarked entries are inactive. The numbers tell different reagents against one gene apart. Not given: the amount of reagent.

FOS #1 → TNF reporter z-score: 0.51
FOS #2 → TNF reporter z-score: 0.283
FOS #3 → TNF reporter z-score: 0.0217
FOS #4 → TNF reporter z-score: -0.345
FOS #5 → TNF reporter z-score: 0.192
FOS #6 → TNF reporter z-score: 1.49
TLR9 #1 → TNF reporter z-score: -0.887
TLR9 #2 → TNF reporter z-score: -0.0696
TLR9 #3 → TNF reporter z-score: -0.207
TLR9 #4 → TNF reporter z-score: 0.664
TLR9 #5 → TNF reporter z-score: -0.548
TLR9 #6 → TNF reporter z-score: 0.804
TLR5 #1 → TNF reporter z-score: -0.0113
TLR5 #2 → TNF reporter z-score: -0.318
TLR5 #3 → TNF reporter z-score: 0.146
TLR5 #4 → TNF reporter z-score: -0.238
TLR5 #5 → TNF reporter z-score: -0.666
TLR5 #6 → TNF reporter z-score: -0.729
CHUK #1 → TNF reporter z-score: -0.314
CHUK #2 → TNF reporter z-score: -0.00816
CHUK #3 → TNF reporter z-score: -1.14
CHUK #4 → TNF reporter z-score: -0.672
CHUK #5 → TNF reporter z-score: -1.4
CHUK #6 → TNF reporter z-score: 0.0773
TAB3 #1 → TNF reporter z-score: -0.616
TAB3 #2 → TNF reporter z-score: -0.455
TAB3 #3 → TNF reporter z-score: -0.76
TAB3 #4 → TNF reporter z-score: 0.54
TAB3 #5 → TNF reporter z-score: 0.889
TAB3 #6 → TNF reporter z-score: -0.276
NFKB1 #1 → TNF reporter z-score: -0.931
NFKB1 #2 → TNF reporter z-score: 1.37
NFKB1 #3 → TNF reporter z-score: 0.297
NFKB1 #4 → TNF reporter z-score: -1.24
NFKB1 #5 → TNF reporter z-score: 1.43
NFKB1 #6 → TNF reporter z-score: 0.102

5 of these entries, set out differently:
TLR5 #2
- TNF reporter z-score: -0.318

TLR5 #3
- TNF reporter z-score: 0.146

TLR5 #4
- TNF reporter z-score: -0.238

TLR5 #5
- TNF reporter z-score: -0.666

TLR5 #6
- TNF reporter z-score: -0.729
